Experimental data published in paper PMC10267580.
These are yes or no findings as the source states them, for the method shown.

Sequences of proteins named here, by UniProt entry; tags and fusion partners are left off. A change or cut given only in a name is not applied to a line headed by its entry. A line that says so, or that is headed by a name, gives the form on record, which may keep a tag or linker. Residues count along the entry.
Rab6B^Q72L D49R, GTPase domain (P61294, form named): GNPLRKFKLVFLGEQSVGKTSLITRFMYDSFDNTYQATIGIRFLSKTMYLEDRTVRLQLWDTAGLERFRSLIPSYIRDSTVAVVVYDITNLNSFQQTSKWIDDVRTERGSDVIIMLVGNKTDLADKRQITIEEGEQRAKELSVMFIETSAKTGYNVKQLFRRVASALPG
Rab6B^Q72L R63E, GTPase domain (P61294, form named): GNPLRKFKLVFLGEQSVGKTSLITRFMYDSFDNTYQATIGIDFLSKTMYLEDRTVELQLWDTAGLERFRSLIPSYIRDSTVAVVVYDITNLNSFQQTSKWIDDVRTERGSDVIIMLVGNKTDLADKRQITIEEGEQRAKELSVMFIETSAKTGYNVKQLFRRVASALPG
UniProt Q811U3, residues 849-922: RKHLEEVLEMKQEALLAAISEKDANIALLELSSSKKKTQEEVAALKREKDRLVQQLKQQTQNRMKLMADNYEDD

Columns and labels:
[1] = biological target: Rab6B^Q72L D49R, GTPase domain (mouse) (UniProt P61294); assay: condition: typically 400 μM in the syringe into 40 μM in the cell; ITC; MicroCal PEAQ-ITC, 25 °C, 50 mM Tris pH 7.5, 100 mM NaCl, 2 mM MgCl2; typically one protein (400 μM) in the syringe into its binding protein (40 μM) in the cell; both purified
[2] = biological target: Rab6B^Q72L R63E, GTPase domain (mouse) (UniProt P61294); assay: as above
[3] = biological target: Trx-tagged ELKS1_RBD (residues 849-922) (rat) (UniProt Q811U3); assay: SEC-MALS; miniDAWN TREOS coupled with an ÄKTA pure system; procedure as for analytical gel filtration; both purified

| binding [1] | binding [2] | binding [3] | Substance |
| --- | --- | --- | --- |
| no binding | no binding | – | ELKS1_RBD, Rab-binding domain of ELKS1 (residues 849-922) (from UniProt Q811U3 849-922) (domain or fragment) |
| – | – | no binding | Trx-tagged ELKS1_RBD (residues 849-922) (from UniProt Q811U3 849-922) (domain or fragment) |
